Measurements taken from PubChem BioAssay (NCATS).
Only results without a clear call are listed here; the source files them as inconclusive. Unless noted, calls come from the whole dose curve; as a rule, active = well fitted curve in the direction sought with a large enough effect; inconclusive = small, poorly fitted or top-dose-only effect, or another doubt; inactive = no such curve, though single readings can be large; an effect the other way counts as inactive or inconclusive.

Sequences of proteins named here, by UniProt entry; tags and fusion partners are left off. Residues count along the entry.
UniProt P51449, whole entry: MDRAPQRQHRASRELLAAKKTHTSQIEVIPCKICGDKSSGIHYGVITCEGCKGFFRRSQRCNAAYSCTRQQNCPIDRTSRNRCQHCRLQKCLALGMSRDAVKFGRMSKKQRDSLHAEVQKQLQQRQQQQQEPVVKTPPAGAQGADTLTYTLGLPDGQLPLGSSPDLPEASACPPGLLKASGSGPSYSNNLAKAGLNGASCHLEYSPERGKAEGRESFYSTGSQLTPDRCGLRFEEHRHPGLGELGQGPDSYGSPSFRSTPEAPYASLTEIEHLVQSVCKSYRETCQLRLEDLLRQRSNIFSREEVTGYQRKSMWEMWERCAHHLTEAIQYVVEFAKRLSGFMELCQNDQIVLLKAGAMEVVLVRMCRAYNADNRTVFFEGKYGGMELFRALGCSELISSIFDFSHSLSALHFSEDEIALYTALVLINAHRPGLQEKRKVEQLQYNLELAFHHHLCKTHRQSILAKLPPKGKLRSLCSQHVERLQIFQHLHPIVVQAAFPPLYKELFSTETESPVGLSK
UniProt Q03181, whole entry: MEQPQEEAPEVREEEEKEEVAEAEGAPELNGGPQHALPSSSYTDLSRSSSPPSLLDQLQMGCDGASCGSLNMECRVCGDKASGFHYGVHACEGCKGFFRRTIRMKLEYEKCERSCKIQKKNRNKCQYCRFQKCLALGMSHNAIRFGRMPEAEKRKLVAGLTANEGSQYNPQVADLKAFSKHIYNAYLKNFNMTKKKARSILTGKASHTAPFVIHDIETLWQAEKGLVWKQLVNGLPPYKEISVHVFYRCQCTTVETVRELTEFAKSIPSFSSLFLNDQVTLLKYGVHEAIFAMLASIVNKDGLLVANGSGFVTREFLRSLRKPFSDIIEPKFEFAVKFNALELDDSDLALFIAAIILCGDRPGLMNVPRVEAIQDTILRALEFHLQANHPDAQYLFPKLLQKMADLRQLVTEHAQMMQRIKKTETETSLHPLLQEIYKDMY
UniProt P08659, whole entry: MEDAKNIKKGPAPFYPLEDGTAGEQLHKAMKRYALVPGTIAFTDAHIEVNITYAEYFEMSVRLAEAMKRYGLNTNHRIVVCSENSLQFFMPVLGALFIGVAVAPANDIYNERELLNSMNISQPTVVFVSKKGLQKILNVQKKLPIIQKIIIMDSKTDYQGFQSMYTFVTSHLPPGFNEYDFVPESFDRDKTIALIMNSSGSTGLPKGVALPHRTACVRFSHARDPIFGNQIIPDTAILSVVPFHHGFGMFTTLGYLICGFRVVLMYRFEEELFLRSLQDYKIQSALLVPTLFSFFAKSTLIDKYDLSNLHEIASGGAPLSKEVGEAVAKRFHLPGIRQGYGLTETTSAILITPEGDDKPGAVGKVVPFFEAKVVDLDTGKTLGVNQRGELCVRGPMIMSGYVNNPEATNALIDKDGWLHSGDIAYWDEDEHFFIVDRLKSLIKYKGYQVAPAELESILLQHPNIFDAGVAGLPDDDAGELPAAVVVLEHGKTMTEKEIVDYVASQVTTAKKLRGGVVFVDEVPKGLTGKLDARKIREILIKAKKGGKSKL
UniProt P02791, 2-175 limits assumed: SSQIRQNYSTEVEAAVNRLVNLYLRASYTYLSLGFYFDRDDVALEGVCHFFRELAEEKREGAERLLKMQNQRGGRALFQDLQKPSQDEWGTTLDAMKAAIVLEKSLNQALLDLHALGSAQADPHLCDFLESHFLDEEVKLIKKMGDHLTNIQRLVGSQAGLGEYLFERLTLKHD
UniProt Q9UGL1, whole entry, looked up: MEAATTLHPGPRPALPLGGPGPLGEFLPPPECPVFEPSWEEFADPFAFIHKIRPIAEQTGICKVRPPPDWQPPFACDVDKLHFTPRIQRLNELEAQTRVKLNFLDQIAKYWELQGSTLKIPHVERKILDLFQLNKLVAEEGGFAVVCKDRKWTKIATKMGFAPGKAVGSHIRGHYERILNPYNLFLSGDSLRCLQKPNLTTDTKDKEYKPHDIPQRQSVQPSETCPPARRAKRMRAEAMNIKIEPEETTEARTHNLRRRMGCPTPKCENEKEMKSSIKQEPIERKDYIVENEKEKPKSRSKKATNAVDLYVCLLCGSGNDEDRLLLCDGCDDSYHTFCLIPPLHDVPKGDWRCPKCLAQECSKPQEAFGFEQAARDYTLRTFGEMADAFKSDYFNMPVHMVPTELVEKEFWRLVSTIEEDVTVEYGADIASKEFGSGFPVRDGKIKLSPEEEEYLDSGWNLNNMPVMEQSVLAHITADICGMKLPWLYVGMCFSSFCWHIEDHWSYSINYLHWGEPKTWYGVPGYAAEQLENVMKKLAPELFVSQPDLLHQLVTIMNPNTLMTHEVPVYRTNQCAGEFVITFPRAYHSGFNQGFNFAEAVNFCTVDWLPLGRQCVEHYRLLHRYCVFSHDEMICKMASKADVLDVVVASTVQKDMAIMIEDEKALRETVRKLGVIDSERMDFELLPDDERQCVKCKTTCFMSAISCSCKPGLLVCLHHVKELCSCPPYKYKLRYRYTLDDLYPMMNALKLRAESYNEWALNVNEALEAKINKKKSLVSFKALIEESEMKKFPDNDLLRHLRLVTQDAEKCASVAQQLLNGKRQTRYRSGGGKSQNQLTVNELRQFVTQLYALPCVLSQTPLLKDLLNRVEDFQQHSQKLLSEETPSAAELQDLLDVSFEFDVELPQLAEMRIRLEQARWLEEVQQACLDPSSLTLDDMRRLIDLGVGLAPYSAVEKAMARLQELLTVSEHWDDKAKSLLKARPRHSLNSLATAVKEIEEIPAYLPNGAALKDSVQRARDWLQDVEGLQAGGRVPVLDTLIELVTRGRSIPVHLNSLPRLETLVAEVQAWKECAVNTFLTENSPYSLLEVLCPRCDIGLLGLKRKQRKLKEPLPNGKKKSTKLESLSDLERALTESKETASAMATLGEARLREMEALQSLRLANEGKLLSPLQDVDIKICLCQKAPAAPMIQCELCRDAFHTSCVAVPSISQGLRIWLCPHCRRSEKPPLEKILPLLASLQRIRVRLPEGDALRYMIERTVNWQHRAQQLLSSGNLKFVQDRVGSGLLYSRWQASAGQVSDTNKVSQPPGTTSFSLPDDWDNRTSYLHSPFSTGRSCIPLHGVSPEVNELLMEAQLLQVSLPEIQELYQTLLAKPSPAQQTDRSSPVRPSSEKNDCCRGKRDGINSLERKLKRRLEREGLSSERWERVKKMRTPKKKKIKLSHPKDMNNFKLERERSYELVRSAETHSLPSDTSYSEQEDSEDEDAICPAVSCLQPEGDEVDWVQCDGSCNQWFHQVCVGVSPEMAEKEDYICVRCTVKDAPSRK

Experiments:
[1] = Quantitative High-Throughput drug screen in 47 multiple myeloma cell lines against the NCATS MIPE library collection: AMO1_DSMZ cell viability assay (AID 1918927; note: potency is the fitted concentration of half-maximal effect; nearly all actives have a fitted effect of over 30% in size); settings: AMO1 myeloma cells viability, CellTiter-Glo ATP luminescence, 48 h
Procedure, shortened: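 Approved and investigational drugs from MIPE 4.0 were added by pin tool to 500 cells per well. After 48 hours at 37C, ATP-based CellTiter-Glo luminescence indicated remaining viability.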

[2] = Quantitative High-Throughput drug screen in 47 multiple myeloma cell lines against the NCATS MIPE library collection: Karpas417_ECACC cell viability assay (AID 1918961); settings: Karpas417 myeloma viability, CellTiter-Glo ATP luminescence, 48 h; note: potency is the fitted concentration of half-maximal effect
Procedure, shortened: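 qHTS of the MIPE 4.0 collection: 500 myeloma cells/well, 48 h drug exposure at 37C in 5% CO2, then CellTiter-Glo for 5 min at room temperature before luminescence reading.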

[3] = Validation of Assay for Modulators of Lamin A Splicing (AID 1459; active = well fitted curve in the direction sought with a large enough effect in the signal ratio; inconclusive = small, poorly fitted or top-dose-only effect, or effect the other way, or a change in a side signal; inactive = no such curve, though single readings can be large or run the other way; the % refers to the signal ratio); settings: Lamin A splicing dual RFP/GFP fluorescence reporter, ratio
Procedure, shortened: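 S3 HeLa stably expressing lamin A-EGFP splicing minigene and DsRed2, 600 cells/well in Opti-MEM with 2% FBS, treated 48 h at 37C; laser-scanning cytometry gives GFP/RFP total intensity ratio; ancitabine positive control, 0.5% DMSO vehicle.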

[4] = biological target: Peroxisome proliferator-activated receptor gamma (Homo sapiens) (UniProt P37231); experiment: qHTS assay for small molecule antagonists of peroxisome proliferator-activated receptor gamma signaling (AID 588537; active = well fitted inhibition curve with a large enough effect in the signal ratio, with a control signal flat, not every such curve was filed as active; inconclusive = small, poorly fitted or top-dose-only effect, or effect the other way, or a change in a side signal; the % refers to the signal ratio;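 note: reporter cells co-stimulated with 50 nM rosiglitazone agonist during compound treatment; % of control where 0% means no effect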); settings: HEK293 PPARg-UAS-bla, beta-lactamase ratio, antagonist mode; activity, negative = inhibition: at 76.8 µM (top of the series)
Procedure, shortened: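 Step one: plate 3000 HEK293 UAS-bla cells per well in medium with 1% stripped serum and hold 6-6.5 h at 37 C. Step two: add compound and 50 nM agonist for 16 h. Step three: CCF4 loading, fluorescence read.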

[5] = qHTS assay to identify small molecules that stimulate interleukin-8 (IL-8) secretion (AID 651758; active = well fitted activation curve with a large enough effect in the signal ratio; inconclusive = small, poorly fitted or top-dose-only effect, or effect the other way, or a change in a side signal; the % refers to the signal ratio; note: 0% is about no effect); settings: HTRF ratio (665/615); activation: at 92.2 µM (top of the series)
Procedure, shortened: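 THP-1 cells (2000/well) exposed to compound 16 h at 37 C; secreted IL-8 then detected by HTRF with cryptate- and XL665-labelled anti-IL-8 antibody pair after 1-3 h at room temperature.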

[6] = biological target: Nuclear receptor ROR-gamma (Homo sapiens) (UniProt P51449); experiment: qHTS assay for small molecule antagonists of the retinoid-related orphan receptor gamma (ROR-gamma) signaling pathway (AID 651802); settings: ROR-gamma antagonist cell reporter assay; note: potency is the fitted concentration of half-maximal effect; nearly all actives have a fitted effect of over 60% in size
[7] = biological target: Peroxisome proliferator-activated receptor delta (Homo sapiens) (UniProt Q03181); experiment: qHTS assay for small molecule agonists of peroxisome proliferator-activated receptor delta signaling (AID 588534; calls by dose curve; note: potency is the fitted concentration of half-maximal effect); settings: HEK293T PPARdelta-UAS-bla, beta-lactamase ratio, 18 h
[8] = qHTS assay for small molecule antagonists of the retinoid-related orphan receptor gamma (ROR-gamma) signaling pathway - cell viability counter screen (AID 720652; active = well fitted curve in the direction sought with a large enough effect in the repeat runs; inconclusive = weak or mixed curves; inactive = no such curve, though single readings can be large; an effect the other way counts as inactive or inconclusive;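 note: potency is the fitted concentration of half-maximal effect; compound exposure lasted 16 hr before ATP read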); settings: RORgamma reporter cell line viability counter screen
[9] = qHTS assay for measurement of the activity of small molecule inhibitors on Zika virus induced Caspase-3 activity in human astrocytoma cells (AID 1224859); settings: SNB-19 ZIKV-induced caspase-3/7, luminescence, 6 h; note: potency is the fitted concentration of half-maximal effect
Procedure, shortened: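 Luminescent caspase-3/7 read-out (30 min reagent, room temperature) in human SNB-19 cells infected 6 h with ZIKV (2 FFU/cell) after 1 h compound pre-incubation; Data were normalised to uninfected and infected wells.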

[10] = qHTS of pediatric cancer cell lines to identify multiple opportunities for drug repurposing: Primary screen for SJ-GBM2 cells (AID 1347091); settings: SJ-GBM2 viability, CellTiter-Glo luminescence, 48 h; note: potency is the fitted concentration of half-maximal effect
Procedure, shortened: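 Viability measured as metabolically active cells via CellTiter-Glo luminescence following 48 hours of compound exposure, 11-point dilutions in confirmatory testing. 500-1,000 cells/well plated 5 hours before dosing; controls were DMSO and 2.3 µM bortezomib.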

[11] = qHTS of pediatric cancer cell lines to identify multiple opportunities for drug repurposing: Primary screen for SK-N-MC cells (AID 1347093); settings: SK-N-MC viability, CellTiter-Glo luminescence, 48 h; note: potency is the fitted concentration of half-maximal effect
[12] = qHTS of pediatric cancer cell lines to identify multiple opportunities for drug repurposing: Primary screen for U-2 OS cells (AID 1347096); settings: U-2 OS viability, CellTiter-Glo luminescence, 48 h; note: potency is the fitted concentration of half-maximal effect; nearly all actives have a fitted effect of over 50% in size
Procedure, shortened: (§1)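 Viability after 48 h compound treatment at 37C, 500-1,000 cells/well, read as ATP luminescence with CellTiter-Glo. Primary screens used 11-point (MIPE, 0.78 nM-46 µM) or 8-point (NPC, 0.59 nM-46 µM) final concentrations; follow-up screens used 11-point dilutions.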

[13] = qHTS of pediatric cancer cell lines to identify multiple opportunities for drug repurposing: Primary screen for Saos-2 cells (AID 1347097); settings: Saos-2 viability, CellTiter-Glo ATP luminescence, 48 h; note: potency is the fitted concentration of half-maximal effect; nearly all actives have a fitted effect of over 40% in size
Procedure, shortened: (§2)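 Primary screen of approved and investigational compounds on cells in growth media at 37 degrees C, 5% CO2. MIPE set at 11-point and NPC set at 8-point dilutions; viability scored by ATP-based luminescence at 48 hours.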

[14] = qHTS of pediatric cancer cell lines to identify multiple opportunities for drug repurposing: Primary screen for RD cells (AID 1347104); settings: RD rhabdomyosarcoma viability, CellTiter-Glo luminescence, 48 h; note: potency is the fitted concentration of half-maximal effect; nearly all actives have a fitted effect of over 55% in size
Procedure, shortened: as §2

[15] = qHTS of pediatric cancer cell lines to identify multiple opportunities for drug repurposing: Primary screen for control Hh wild type fibroblast cells (AID 1347106); settings: Hh wild-type fibroblast viability, CellTiter-Glo luminescence, 48 h; note: potency is the fitted concentration of half-maximal effect; nearly all actives have a fitted effect of over 55% in size
Procedure, shortened: as §1

[16] = qHTS of pediatric cancer cell lines to identify multiple opportunities for drug repurposing: Primary screen for Rh41 cells (AID 1347108); settings: Rh41 rhabdomyosarcoma viability, CellTiter-Glo luminescence, 48 h; note: potency is the fitted concentration of half-maximal effect; nearly all actives have a fitted effect of over 70% in size
Procedure, shortened: as §2

[17] = Primary qHTS for small molecule stabilizers of the endoplasmic reticulum resident proteome: Secreted ER Calcium Modulated Protein (SERCaMP) assay (AID 1508630); settings: SH-SY5Y GLuc-SERCaMP secretion, thapsigargin, luminescence; note: potency is the fitted concentration of half-maximal effect
Procedure, shortened: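 GLuc-SERCaMP-expressing SH-SY5Y cells, pretreated 16 h with compound, are challenged with thapsigargin to empty ER calcium stores; after 4 h, coelenterazine is added directly to the medium and luminescence is imaged.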

[18] = Primary qHTS for inhibitors of nuclear receptor binding SET domain protein 2 (NSD2) in an isogenic RCH-ACV NSD2 p.E1099K mutant (9B) (AID 1645876); settings: RCH-ACV (leukaemia line) NSD2 E1099K (9B) viability, CellTiter-Glo, 72 h; note: potency is the fitted concentration of half-maximal effect; nearly all actives have a fitted effect of over 70% in size
[19] = qHTS for differential inhibitors of proliferation of Plasmodium falciparum line Dd2 (AID 1882); settings: Plasmodium falciparum Dd2 proliferation inhibition; note: potency is the fitted concentration of half-maximal effect; nearly all actives have a fitted effect of over 65% in size
Procedure, shortened: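 SYBR Green I DNA fluorescence read-out, ex 485/em 535 nm. Signals were normalized to 0.29 uM artemisinin and DMSO wells, then corrected using vehicle-only plates flanking each stack. Parasite growth ran 72 h in erythrocytes before lysis.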

[20] = biological target: Luciferin 4-monooxygenase (Photinus pyralis) (UniProt P08659); experiment: Biochemical firefly luciferase enzyme assay for NPC (AID 624030); note: potency is the fitted concentration of half-maximal effect; nearly all actives have a fitted effect of over 70% in size; settings: purified P. pyralis luciferase, luminescence, 5 min
Procedure, shortened: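 Purified P. pyralis luciferase at 10 nM in 50 mM Tris Acetate (final), luminescence read within 5 minutes of enzyme addition to compounds. Activity normalised to PTC124 versus DMSO; concentration-response curves classed by r2, magnitude and activity.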

7G8 = experiment: qHTS profiling for inhibitors of Plasmodium falciparum proliferation (AID 504749); note: potency is the fitted concentration of half-maximal effect; nearly all actives have a fitted effect of over 60% in size; settings: P. falciparum in erythrocytes, SYBR Green DNA, 72 h
Procedure, shortened: (§3)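 Readout was DNA-dye fluorescence from lysed cultures, ex 485/em 535 nm. Parasitized red cells had grown 72 h with compound; data scaled between 0.29 uM artemisinin and DMSO wells and corrected using vehicle-only plates.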

AA1029 = experiment: as above; settings: P. falciparum in erythrocytes, SYBR Green DNA, 72 h
Procedure, shortened: as §3

ATS95 = experiment: as above; settings: P. falciparum in erythrocytes, SYBR Green DNA, 72 h
Procedure, shortened: as §3

CP194 = experiment: as above; settings: P. falciparum in erythrocytes, SYBR Green DNA, 72 h
Procedure, shortened: as §3

CP203 = experiment: as above; settings: P. falciparum in erythrocytes, SYBR Green DNA, 72 h
Procedure, shortened: as §3

CP237 = experiment: as above; settings: P. falciparum in erythrocytes, SYBR Green DNA, 72 h
Procedure, shortened: as §3

CP265 = experiment: as above; settings: P. falciparum in erythrocytes, SYBR Green DNA, 72 h
Procedure, shortened: as §3

CP291 = experiment: as above; settings: P. falciparum in erythrocytes, SYBR Green DNA, 72 h
Procedure, shortened: as §3

CP297 = experiment: as above; settings: P. falciparum in erythrocytes, SYBR Green DNA, 72 h
Procedure, shortened: as §3

CP305 = experiment: as above; settings: P. falciparum in erythrocytes, SYBR Green DNA, 72 h
Procedure, shortened: as §3

CP335 = experiment: as above; settings: P. falciparum in erythrocytes, SYBR Green DNA, 72 h
Procedure, shortened: as §3

DIV14 = experiment: as above; settings: P. falciparum in erythrocytes, SYBR Green DNA, 72 h
Procedure, shortened: as §3

DIV17 = experiment: as above; settings: P. falciparum in erythrocytes, SYBR Green DNA, 72 h
Procedure, shortened: as §3

Dd2 = experiment: as above; settings: P. falciparum in erythrocytes, SYBR Green DNA, 72 h
Procedure, shortened: as §3

GB4 = experiment: as above; settings: P. falciparum in erythrocytes, SYBR Green DNA, 72 h
Procedure, shortened: as §3

ICS = experiment: as above; settings: P. falciparum in erythrocytes, SYBR Green DNA, 72 h
Procedure, shortened: as §3

N140 = experiment: as above; settings: P. falciparum in erythrocytes, SYBR Green DNA, 72 h
Procedure, shortened: as §3

TAB109 = experiment: as above; settings: P. falciparum in erythrocytes, SYBR Green DNA, 72 h
Procedure, shortened: as §3

[21] = biological target: Ferritin light chain (Equus caballus) (UniProt P02791); experiment: qHTS Validation Assay for Identification of Novel General Anesthetics (AID 2323); settings: horse apoferritin, anesthetic-site fluorescent probe displacement; note: potency is the fitted concentration of half-maximal effect
Procedure, shortened: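 Horse-spleen apoferritin (10 uM) in PBS with 50% saturated 1-aminoanthracene; compounds pin-transferred, 10 min at room temperature. Fluorescence read at 380/535 nm, normalized to free 1-AMA and 1-AMA/apoferritin values; four-parameter Hill fit.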

[22] = biological target: Lysine-specific demethylase 5B (Homo sapiens) (UniProt Q9UGL1); experiment: Optimization screen for KDM5B Histone Demethylases FDH coupled qHTS against the LOPAC library (AID 1347166); settings: KDM5B demethylation, FDH-coupled NADH fluorescence; note: potency is the fitted concentration of half-maximal effect
Procedure, shortened: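 KDM5BDeltaAP (200nM final) preincubated 10 min with compound, then 12.5uM H3K4Me3, 25uM a-ketoglutarate, ascorbate, Fe(II), NAD+ and FDH added; 50mM HEPES pH 7.5, 0.01% Tween-20. NADH fluorescence (340/450 nm) change over 30 min, room temperature.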

CC1=C2[N-][C@@](C)([C@@H]3N=C(C(C)=C4N=C(C=C5N=C1[C@@](C)(CC(N)=O)[C@H]5CCC(N)=O)C(C)(C)[C@H]4CCC(N)=O)[C@](C)(CCC(=O)NC[C@@H](C)OP(=O)([O-])O[C@H]1[C@@H](O)[C@@H](n4cnc5cc(C)c(C)cc54)O[C@H]1CO)[C@H]3CC(N)=O)[C@@](C)(CC(N)=O)[C@@H]2CCC(N)=O.[C-]#N.[Co+3]
inconclusive: Potency [1] 2.04 µM | Potency [2] 2.04 µM

CN(CCCl)Cc1cc(Cl)c(NC2=NCCN2)c(Cl)c1
inconclusive: Potency [3] 20 µM

O=[N+]([O-])C(Cl)(Cl)Cl
inconclusive: activity, negative = inhibition [4] 10.2% | activation [5] -18.1% | Potency [6] 29.8 µM

Cc1cc([N+](=O)[O-])cc([N+](=O)[O-])c1O
inconclusive: Potency [7] 14.1 µM | Potency [8] 33.5 µM | Potency [9] 35.5 µM | Potency [10] 21.7 µM | Potency [11] 48.6 µM | Potency [12] 30.6 µM | Potency [13] 48.6 µM | Potency [14] 54.5 µM | Potency [15] 68.6 µM | Potency [16] 30.6 µM | Potency [17] 35.5 µM | Potency [18] 30.6 µM

CN(C(=O)Cc1ccc(Cl)c(Cl)c1)[C@@H]1CC[C@]2(CCCO2)C[C@H]1N1CCCC1
inconclusive: Potency [19] 3.55 µM

CCC(=O)N(c1ccccc1)C1CCN(CCc2ccccc2)CC1
inconclusive: Potency [20] 40.5 µM | Potency (7G8) 12.6 µM | Potency (AA1029) 12.6 µM | Potency (ATS95) 17.8 µM | Potency (CP194) 19 µM | Potency (CP203) 16.9 µM | Potency (CP237) 10 µM | Potency (CP265) 12.6 µM | Potency (CP291) 21.3 µM | Potency (CP297) 12 µM | Potency (CP305) 12 µM | Potency (CP335) 15.1 µM | Potency (DIV14) 6.01 µM | Potency (DIV17) 15.1 µM | Potency (Dd2) 8.91 µM | Potency (GB4) 13.5 µM | Potency (ICS) 17.8 µM | Potency (N140) 17.8 µM | Potency (TAB109) 10 µM

N#[O+].[C-]#N.[C-]#N.[C-]#N.[C-]#N.[C-]#N.[Fe+2].[Na+].[Na+]
inconclusive: Potency [21] 39.8 µM | Potency [22] 25.1 µM
